No constants are given. Whether binding was seen depends on the method and setting. A result given as binding can be weak or reduced; the word gives no strength. Where a sequence is shown, tags or fusion partners need not be part of it.
Biological target: GST-^EB1Bim1 (the EB1 domain of Bim1 as a GST-fusion) (S. cerevisiae)
Assay: pull-down; GST-^EB1Bim1 bound to beads (bait), recombinant ^MBPKip2ΔC^GFP variants as prey; Coomassie-stained gels; both purified

B1: ^MBPKip2ΔC^GFP (MBP-fusion of Kip2 lacking the C-terminal tail, Kip2 1-560, followed by GFP) (domain or fragment, UniProt P28743 1-560)
chain: MIQKMSPSLRRPSTRSSSGSSNIPQSPSVRSTSSFSNLTRNSIRSTSNSGSQSISASSTRSNSPLRSVSAKSDPFLHPGRIRIRRSDSINNNSRKNDTYTGSITVTIRPKPRSVGTSRDHVGLKSPRYSQPRSNSHHGSNTFVRDPWFITNDKTIVHEEIGEFKFDHVFASHCTNLEVYERTSKPMIDKLLMGFNATIFAYGMTGSGKTFTMSGNEQELGLIPLSVSYLFTNIMEQSMNGDKKFDVIISYLEIYNERIYDLLESGLEESGSRISTPSRLYMSKSNSNGLGVELKIRDDSQYGVKVIGLTERRCESSEELLRWIAVGDKSRKIGETDYNARSSRSHAIVLIRLTSTNVKNGTSRSSTLSLCDLAGSERATGQQERRKEGSFINKSLLALGTVISKLSADKMNSVGSNIPSPSASGSSSSSGNATNNGTSPSNHIPYRDSKLTRLLQPALSGDSIVTTICTVDTRNDAAAETMNTLRFASRAKNVALHVSKKSIISNGNNDGDKDRTIELLRRQLEEQRRMISELKNRSNIGEPLTKSSNESTYKDIKATGN
**Q.** For B1, which binding is on record?
**A.** The binding was “binds”.

B2: ^MBPKip2ΔC^GFP with the N-terminal SxIP^1 motif mutated (SNIP to SNNN) (domain or fragment, UniProt P28743 1-560)
chain: MIQKMSPSLRRPSTRSSSGSSNNNQSPSVRSTSSFSNLTRNSIRSTSNSGSQSISASSTRSNSPLRSVSAKSDPFLHPGRIRIRRSDSINNNSRKNDTYTGSITVTIRPKPRSVGTSRDHVGLKSPRYSQPRSNSHHGSNTFVRDPWFITNDKTIVHEEIGEFKFDHVFASHCTNLEVYERTSKPMIDKLLMGFNATIFAYGMTGSGKTFTMSGNEQELGLIPLSVSYLFTNIMEQSMNGDKKFDVIISYLEIYNERIYDLLESGLEESGSRISTPSRLYMSKSNSNGLGVELKIRDDSQYGVKVIGLTERRCESSEELLRWIAVGDKSRKIGETDYNARSSRSHAIVLIRLTSTNVKNGTSRSSTLSLCDLAGSERATGQQERRKEGSFINKSLLALGTVISKLSADKMNSVGSNIPSPSASGSSSSSGNATNNGTSPSNHIPYRDSKLTRLLQPALSGDSIVTTICTVDTRNDAAAETMNTLRFASRAKNVALHVSKKSIISNGNNDGDKDRTIELLRRQLEEQRRMISELKNRSNIGEPLTKSSNESTYKDIKATGN
**Q.** For B2, which binding is on record?
**A.** The binding was “binds”.

B3: ^MBPKip2ΔC^GFP with both EB1-binding motifs mutated (SxIP^1 and SxIP^2, SNIP to SNNN) (domain or fragment, UniProt P28743 1-560)
chain: MIQKMSPSLRRPSTRSSSGSSNNNQSPSVRSTSSFSNLTRNSIRSTSNSGSQSISASSTRSNSPLRSVSAKSDPFLHPGRIRIRRSDSINNNSRKNDTYTGSITVTIRPKPRSVGTSRDHVGLKSPRYSQPRSNSHHGSNTFVRDPWFITNDKTIVHEEIGEFKFDHVFASHCTNLEVYERTSKPMIDKLLMGFNATIFAYGMTGSGKTFTMSGNEQELGLIPLSVSYLFTNIMEQSMNGDKKFDVIISYLEIYNERIYDLLESGLEESGSRISTPSRLYMSKSNSNGLGVELKIRDDSQYGVKVIGLTERRCESSEELLRWIAVGDKSRKIGETDYNARSSRSHAIVLIRLTSTNVKNGTSRSSTLSLCDLAGSERATGQQERRKEGSFINKSLLALGTVISKLSADKMNSVGSNNNSPSASGSSSSSGNATNNGTSPSNHIPYRDSKLTRLLQPALSGDSIVTTICTVDTRNDAAAETMNTLRFASRAKNVALHVSKKSIISNGNNDGDKDRTIELLRRQLEEQRRMISELKNRSNIGEPLTKSSNESTYKDIKATGN
**Q.** B3 was tested. Which binding did it give?
**A.** Its binding is “binds”.

B4: Δ70 variant of ^MBPKip2ΔC^GFP (domain or fragment, UniProt P28743 71-560)
chain: KSDPFLHPGRIRIRRSDSINNNSRKNDTYTGSITVTIRPKPRSVGTSRDHVGLKSPRYSQPRSNSHHGSNTFVRDPWFITNDKTIVHEEIGEFKFDHVFASHCTNLEVYERTSKPMIDKLLMGFNATIFAYGMTGSGKTFTMSGNEQELGLIPLSVSYLFTNIMEQSMNGDKKFDVIISYLEIYNERIYDLLESGLEESGSRISTPSRLYMSKSNSNGLGVELKIRDDSQYGVKVIGLTERRCESSEELLRWIAVGDKSRKIGETDYNARSSRSHAIVLIRLTSTNVKNGTSRSSTLSLCDLAGSERATGQQERRKEGSFINKSLLALGTVISKLSADKMNSVGSNIPSPSASGSSSSSGNATNNGTSPSNHIPYRDSKLTRLLQPALSGDSIVTTICTVDTRNDAAAETMNTLRFASRAKNVALHVSKKSIISNGNNDGDKDRTIELLRRQLEEQRRMISELKNRSNIGEPLTKSSNESTYKDIKATGN
**Q.** B4 was tested. Which binding did it give?
**A.** The binding was “binds weakly”.
